Measured values reported in the supplement of paper PMC5949888.
Most values lie at the floor of the assay. Slopes are relative: functional sequences can read slightly below zero.

tested on: Saccharomyces cerevisiae PS128 hsf1 delta, HSF1(1-493) fusion; experiment: growth estimate (transactivation domain function in HSF1 fusion, heat-shock survival) (a.u. (slope of normalised read count over time)); higher = stronger growth at 37°C, i.e. more transactivation activity; conditions: library: random library

| Substance | growth estimate |
| --- | --- |
| WTGLVDSLPSCACI | < -0.25 |
| WTHGQRRPALDGLYLWAPLR | < -0.25 |
| WTLRP | < -0.25 |
| WTNAPG | < -0.25 |
| WTPALRSCRANCKGCGHLHR | < -0.25 |
| WTPTSVRIRICFSFN | < -0.25 |
| WTQL | < -0.25 |
| WTQLLTGLRMLRHPRAASLA | -0.246 |
| WTSFAKAILITKSQKYGRTP | < -0.25 |
| WTTIGTQMGGLTLGSRGNTL | < -0.25 |
| WTTPGDGYEPCGGDVTHWKV | < -0.25 |
| WTVGGYTTQCRPLLDLTGPC | < -0.25 |
| WTWTGTDTPLVASGKHV | < -0.25 |
| WVAVPQRRLTTPVICR | < -0.25 |
| WVCVFGSASCGYY | < -0.25 |
| WVGVNCRKNPAEQSE | < -0.25 |
| WVIVVTVLRSEILRGLYSSE | < -0.25 |
| WVLG | < -0.25 |
| WVQRGPTPLGMGVRGARKRH | < -0.25 |
| WVQRSSAQ | < -0.25 |
| WVQTGE | < -0.253 |
| WVRGLPMFLRWQATIHARSR | < -0.25 |
| WVRMQSDQIAGRGNDLGLFG | < -0.25 |
| WVSGLGQRERVRTAINCEQK | < -0.25 |
| WVSSTLHRGGACDMVVSPLS | < -0.25 |

| Substance | growth estimate |
| --- | --- |
| WVSSVKDDPFLLEKTYNLGE | < -0.25 |
| WVT | < -0.25 |
| WVTSGAPRGGRNTGQSVPSS | < -0.25 |
| WVTT | < -0.25 |
| WVVEIQSHLPGFT | < -0.25 |
| WVYNSTTDPFV | < -0.25 |
| WWHYPLFHRYVEQGNLSNLN | < -0.25 |
| WWKEKWEGKAFAVTGLNTGG | < -0.25 |
| WWMCYPVGVTKQSKNDALYP | < -0.25 |
| WWPLHECP | < -0.25 |
| WWQGVSDS | < -0.25 |
| WWSSSAGLPNGTHSSTIGHG | < -0.25 |
| WYA | < -0.25 |
| WYAGSRYQTPLPVWRWITRA | < -0.25 |
| WYAPWILSRFCSGHPSWLVS | < -0.25 |
| WYAWVSNKAVQRVFSDCPCT | < -0.25 |
| WYCTTWAANMEV | < -0.25 |
| WYIGPEQ | < -0.25 |
| WYLRMT | < -0.25 |
| WYLSVTAYRIHAGNEEFVPS | < -0.25 |
| WYRPRG | < -0.25 |
| WYS | < -0.25 |
| WYSSRIAKLDSLY | < -0.25 |
| WYSSTTERALDGLNFLLSR | -0.173 |
| WYVHAIFVAARKSAKRAQKT | < -0.25 |

| Substance | growth estimate |
| --- | --- |
| WYVRGTR | < -0.25 |
| YAAAAASWANRL | < -0.25 |
| YADSRSPEAT | < -0.25 |
| YADVGILLGRDGQTECMI | < -0.25 |
| YAETNE | < -0.25 |
| YAFFGC | < -0.25 |
| YAGFLICSFSRLSLYGWASS | < -0.25 |
| YAIWEME | < -0.25 |
| YANCRRNIQTP | < -0.25 |
| YAPAGGVSIGRTKT | < -0.25 |
| YAQMNGHAFFESEAFSLWTS | < -0.25 |
| YAQSAGGGLRTVWRSV | < -0.25 |
| YARFPRVS | < -0.25 |
| YASLRFQAVGICHGTFRW | < -0.25 |
| YASN | < -0.25 |
| YASVSRVVYPYVGGIVHEYG | < -0.25 |
| YATVGKMLYDAGVINV | < -0.25 |
| YAYLGADGLNSKTPV | < -0.25 |
| YCGSYENLLTRFVFSSAFFR | < -0.25 |
| YCISTGVPWRFLGRSHGVMR | < -0.25 |
| YCLTLVSPLRAFS | < -0.25 |
| YCRGAVGPLTAQRSLCPDLV | < -0.25 |
| YCRTASWWDTDRD | < -0.25 |
| YCSVFRCREPGVFCHPTPFA | < -0.25 |
| YDCVTGSRKLPRTVWISLCP | < -0.25 |

| Substance | growth estimate |
| --- | --- |
| YDGALWGHSLSHYRQCSPV | < -0.25 |
| YDGARPITAIEY | < -0.25 |
| YDGGGTCHWSEHSAPDSSGL | < -0.25 |
| YDGWCCGTGGWLMQCSQVAP | < -0.25 |
| YDISEIRAWLRDSRRAAPSP | < -0.25 |
| YDPG | < -0.25 |
| YDTCPTHMVEQVGQHTHRGA | < -0.25 |
| YEALNLPSLTAGHLV | < -0.25 |
| YEDNCYGHSRDILASSPERT | < -0.25 |
| YEDYVFKSWSFELSADSSSA | < -0.25 |
| YEEGG | < -0.25 |
| YEEGRCRAKRWYKLASWPSS | < -0.25 |
| YEFAPC | < -0.25 |
| YEIVQFFH | < -0.25 |
| YELHGGTVSRSRDLGSGSRV | < -0.25 |
| YELRALGEITVFQQ | < -0.25 |
| YENTRG | < -0.25 |
| YEQQCIHRLVAEMYLALLAR | < -0.25 |
| YEQSGMFLSVRH | < -0.25 |
| YERSGSPC | < -0.25 |
| YESKERITLHGRLATEHWSG | < -0.25 |
| YESSFSCLSNASIAAITPGY | -0.231 |
| YETTCGRSRSRGSHNAVVSF | < -0.25 |
| YEWFPGMSA | < -0.25 |
| YEWMVPWTSQTGSTAT | < -0.25 |

| Substance | growth estimate |
| --- | --- |
| YFGSVHKLRSQNKLRSRTGH | < -0.25 |
| YFTIRQSRRTRSWKERLTIH | < -0.25 |
| YFVSRIHVC | < -0.25 |
| YFWSRSCGAISPLNYLVGLQ | < -0.25 |
| YGASYMSVSPNGVWFGCGKT | < -0.25 |
| YGCTSLESRG | -0.206 |
| YGCTVHLTTLILRLGLCRVS | < -0.25 |
| YGEGRVSARAD | < -0.25 |
| YGFATLVRYNK | < -0.25 |
| YGFHADK | < -0.25 |
| YGGATVV | < -0.25 |
| YGGDNLLSE | < -0.25 |
| YGGERLEVEGYRGLYLDGAN | < -0.25 |
| YGHPRLGAIGKGDRPVAYAI | -0.25 |
| YGHSQASAYKLHLSDLAELT | < -0.25 |
| YGIAIIVRVYAGNFGSIHRP | < -0.25 |
| YGKSSECRSFRMWGSSLQSV | < -0.25 |
| YGLAVCGDLQIELMVLLRIS | < -0.25 |
| YGLWWLISVGRLLFTVIAR | < -0.25 |
| YGMATGLERTCGRRTCSGAC | < -0.25 |
| YGMVRGRRLISGDNGPNTVE | < -0.25 |
| YGNLIPGRIWKGFLDAPHAL | < -0.25 |
| YGNRRRSVHEQCVREMVCMP | < -0.25 |
| YGPLQRRSLGLTLLITGL | < -0.25 |
| YGPYPEAPGPGNV | < -0.25 |

| Substance | growth estimate |
| --- | --- |
| YGRM | < -0.25 |
| YGRVPSRAAHMFVHNLRPVY | < -0.25 |
| YGSKADDACQQHFVQRRMSK | < -0.25 |
| YGSWHDLSHFRAWAFGLMVT | < -0.25 |
| YGVCHSNPRRLRRGVRGHRL | < -0.25 |
| YGVGSDRGLRCRPSASS | < -0.25 |
| YGVQYCTPS | < -0.25 |
| YGVTWC | < -0.25 |
| YGVVLTSGYDQFNFRRASLS | < -0.25 |
| YHHPT | < -0.25 |
| YHMRRRIAL | < -0.25 |
| YHVE | < -0.25 |
| YIAQSG | < -0.25 |
| YIDQLKVRKITRRVGYRRTL | < -0.25 |
| YIDT | < -0.25 |
| YIFRCSGLKCLLTKVWSQNY | -0.246 |
| YIIGAAFVTWIAGPLLPMNR | < -0.25 |
| YIPVCADAC | -0.243 |
| YISQLDLCNGVGNLF | < -0.25 |
| YITSASFGQPAHGCDASFGP | < -0.25 |
| YIVIVIESLALVSSRLSQRN | -0.246 |
| YIVLLLGSSGISKGEGNRGA | < -0.25 |
| YKAEF | < -0.25 |
| YKAVKPTVPNLGTRAHSCLT | < -0.25 |
| YKCAKSYLEALEIRLGRPVP | < -0.25 |

A run of entries from further up:

| Substance | growth estimate |
| --- | --- |
| YENTRG | < -0.25 |
| YEQQCIHRLVAEMYLALLAR | < -0.25 |
| YEQSGMFLSVRH | < -0.25 |
| YERSGSPC | < -0.25 |
| YESKERITLHGRLATEHWSG | < -0.25 |
| YESSFSCLSNASIAAITPGY | -0.231 |
| YETTCGRSRSRGSHNAVVSF | < -0.25 |
| YEWFPGMSA | < -0.25 |
| YEWMVPWTSQTGSTAT | < -0.25 |
| YFGSVHKLRSQNKLRSRTGH | < -0.25 |
| YFTIRQSRRTRSWKERLTIH | < -0.25 |
| YFVSRIHVC | < -0.25 |
| YFWSRSCGAISPLNYLVGLQ | < -0.25 |
| YGASYMSVSPNGVWFGCGKT | < -0.25 |
| YGCTSLESRG | -0.206 |
| YGCTVHLTTLILRLGLCRVS | < -0.25 |
| YGEGRVSARAD | < -0.25 |
| YGFATLVRYNK | < -0.25 |
| YGFHADK | < -0.25 |
| YGGATVV | < -0.25 |
| YGGDNLLSE | < -0.25 |
| YGGERLEVEGYRGLYLDGAN | < -0.25 |
| YGHPRLGAIGKGDRPVAYAI | -0.25 |
| YGHSQASAYKLHLSDLAELT | < -0.25 |
| YGIAIIVRVYAGNFGSIHRP | < -0.25 |
| YGKSSECRSFRMWGSSLQSV | < -0.25 |
| YGLAVCGDLQIELMVLLRIS | < -0.25 |
| YGLWWLISVGRLLFTVIAR | < -0.25 |
| YGMATGLERTCGRRTCSGAC | < -0.25 |
| YGMVRGRRLISGDNGPNTVE | < -0.25 |
| YGNLIPGRIWKGFLDAPHAL | < -0.25 |
| YGNRRRSVHEQCVREMVCMP | < -0.25 |
| YGPLQRRSLGLTLLITGL | < -0.25 |
| YGPYPEAPGPGNV | < -0.25 |
| YGRM | < -0.25 |
| YGRVPSRAAHMFVHNLRPVY | < -0.25 |
| YGSKADDACQQHFVQRRMSK | < -0.25 |
| YGSWHDLSHFRAWAFGLMVT | < -0.25 |
| YGVCHSNPRRLRRGVRGHRL | < -0.25 |
| YGVGSDRGLRCRPSASS | < -0.25 |

Continued.

| Substance | growth estimate |
| --- | --- |
| YKCSG | < -0.25 |
| YKDS | < -0.25 |
| YKEGHTSVKRWVRSAAYFQS | < -0.25 |
| YKIARWPGIATGMLGFPVRL | < -0.25 |
| YKNQRNSRTTGRGLQ | -0.0978 |
| YKPADRRRLANRVRAPCAWE | < -0.25 |
| YKQGADKKFAYPMY | < -0.25 |
| YKREIEITRRGLTGLLGNST | < -0.25 |
| YLACS | < -0.25 |
| YLAPSSVLDRCVPCCFTNIG | < -0.25 |
| YLGLRSSLVTNCKGFYKSY | < -0.25 |
| YLHSYLPVGGSPLSPHLWGT | < -0.25 |
| YLIESPGLTRSGLV | < -0.25 |
| YLL | < -0.25 |
| YLLGIRFCGQ | < -0.25 |
| YLLTGVLTPVGRDQWESMPV | < -0.25 |
| YLPDGYNLSRDGDTWCNSDG | < -0.25 |
| YLPFWTARGV | < -0.25 |
| YLPRLIIP | < -0.25 |
| YLPTCSTP | < -0.25 |
| YLRDPGRDH | < -0.25 |
| YLRIAL | < -0.25 |
| YLRIRHGVCAPFAPGHSGRS | < -0.25 |
| YLRQKLA | < -0.25 |
| YLRVRVAIWSTRAYCGY | < -0.25 |

| Substance | growth estimate |
| --- | --- |
| YLRVVEPNCNRTRRNEVFEN | < -0.25 |
| YLSGPGPYGFRIILQRGRPP | < -0.25 |
| YLSTAVVRGQFAPHCKLLWG | < -0.25 |
| YLTMGGWEFHECNLIEWSRG | < -0.25 |
| YLTTVWPKSRSTSRGGVE | < -0.25 |
| YLTVGHRCNTASEESDRNGA | < -0.25 |
| YLTVYTGAAPVPLIWAKLVL | < -0.25 |
| YLVNGGLSWSAVIDMKTSRS | -0.222 |
| YMKRSKSGNWDVLWLYILET | < -0.25 |
| YMPFTAQVLVFRSDETGPVG | < -0.25 |
| YMYGVNRVHSR | < -0.25 |
| YNAKLPRRAR | < -0.25 |
| YNC | < -0.25 |
| YNGFGESLCWRFRTVVFYSA | < -0.25 |
| YNGLQRGFRRGPTLTTSSL | < -0.25 |
| YNRCPRLAVESRELFSLGSV | < -0.25 |
| YNSGCRVY | < -0.25 |
| YNSLAIALVYFTWWK | < -0.25 |
| YPALESEDDDFNYRRAASES | < -0.25 |
| YPARTYA | < -0.25 |
| YPCYTEIAESESLPQLWPA | < -0.25 |
| YPERLLLLYYQLFTTPNTMQ | < -0.25 |
